# Assay results as given in the supplement of paper PMC7666118.
# Sequences of proteins named here, by UniProt entry; tags and fusion partners are left off. A change or cut given only in a name is not applied to a line headed by its entry.
# UniProt Q13557, whole entry: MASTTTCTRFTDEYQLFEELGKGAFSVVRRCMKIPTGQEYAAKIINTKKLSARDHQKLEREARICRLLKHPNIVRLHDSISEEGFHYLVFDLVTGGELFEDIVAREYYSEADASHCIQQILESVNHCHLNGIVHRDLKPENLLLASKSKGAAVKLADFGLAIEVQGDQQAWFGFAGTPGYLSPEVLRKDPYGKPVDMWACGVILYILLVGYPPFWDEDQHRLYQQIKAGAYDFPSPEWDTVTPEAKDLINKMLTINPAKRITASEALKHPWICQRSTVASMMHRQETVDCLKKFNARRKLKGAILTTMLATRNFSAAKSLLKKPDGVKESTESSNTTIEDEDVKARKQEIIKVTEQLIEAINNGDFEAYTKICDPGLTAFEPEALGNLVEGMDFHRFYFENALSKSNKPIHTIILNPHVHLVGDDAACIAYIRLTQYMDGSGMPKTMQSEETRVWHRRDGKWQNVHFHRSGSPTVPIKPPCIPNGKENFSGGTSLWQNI
# UniProt O95429: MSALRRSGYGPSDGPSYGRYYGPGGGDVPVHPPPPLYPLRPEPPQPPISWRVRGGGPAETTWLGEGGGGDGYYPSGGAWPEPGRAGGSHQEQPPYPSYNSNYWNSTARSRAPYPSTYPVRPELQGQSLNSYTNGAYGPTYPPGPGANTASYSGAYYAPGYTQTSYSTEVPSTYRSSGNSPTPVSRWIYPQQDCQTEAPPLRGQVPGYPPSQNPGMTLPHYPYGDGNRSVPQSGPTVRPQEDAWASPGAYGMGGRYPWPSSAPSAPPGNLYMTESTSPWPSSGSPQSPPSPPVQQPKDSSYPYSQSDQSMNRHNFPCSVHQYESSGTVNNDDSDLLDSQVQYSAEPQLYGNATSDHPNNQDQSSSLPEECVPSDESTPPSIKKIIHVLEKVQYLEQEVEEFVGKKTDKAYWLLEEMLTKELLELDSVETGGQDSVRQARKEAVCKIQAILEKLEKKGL
# UniProt Q8N9N5: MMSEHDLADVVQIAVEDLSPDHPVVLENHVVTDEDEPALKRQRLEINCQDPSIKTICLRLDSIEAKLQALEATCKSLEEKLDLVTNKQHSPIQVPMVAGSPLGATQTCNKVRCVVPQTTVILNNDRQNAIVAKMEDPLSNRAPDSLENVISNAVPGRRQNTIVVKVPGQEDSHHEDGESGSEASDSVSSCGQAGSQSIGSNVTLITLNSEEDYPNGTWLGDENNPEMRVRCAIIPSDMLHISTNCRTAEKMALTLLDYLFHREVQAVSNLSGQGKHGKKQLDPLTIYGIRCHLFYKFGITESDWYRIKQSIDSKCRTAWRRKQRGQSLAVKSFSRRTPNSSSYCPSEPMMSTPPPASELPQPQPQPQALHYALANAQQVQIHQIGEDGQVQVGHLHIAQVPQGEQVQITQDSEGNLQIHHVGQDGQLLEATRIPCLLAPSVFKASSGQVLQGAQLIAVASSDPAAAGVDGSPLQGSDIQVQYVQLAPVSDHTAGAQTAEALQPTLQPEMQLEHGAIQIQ
# UniProt A6QL63: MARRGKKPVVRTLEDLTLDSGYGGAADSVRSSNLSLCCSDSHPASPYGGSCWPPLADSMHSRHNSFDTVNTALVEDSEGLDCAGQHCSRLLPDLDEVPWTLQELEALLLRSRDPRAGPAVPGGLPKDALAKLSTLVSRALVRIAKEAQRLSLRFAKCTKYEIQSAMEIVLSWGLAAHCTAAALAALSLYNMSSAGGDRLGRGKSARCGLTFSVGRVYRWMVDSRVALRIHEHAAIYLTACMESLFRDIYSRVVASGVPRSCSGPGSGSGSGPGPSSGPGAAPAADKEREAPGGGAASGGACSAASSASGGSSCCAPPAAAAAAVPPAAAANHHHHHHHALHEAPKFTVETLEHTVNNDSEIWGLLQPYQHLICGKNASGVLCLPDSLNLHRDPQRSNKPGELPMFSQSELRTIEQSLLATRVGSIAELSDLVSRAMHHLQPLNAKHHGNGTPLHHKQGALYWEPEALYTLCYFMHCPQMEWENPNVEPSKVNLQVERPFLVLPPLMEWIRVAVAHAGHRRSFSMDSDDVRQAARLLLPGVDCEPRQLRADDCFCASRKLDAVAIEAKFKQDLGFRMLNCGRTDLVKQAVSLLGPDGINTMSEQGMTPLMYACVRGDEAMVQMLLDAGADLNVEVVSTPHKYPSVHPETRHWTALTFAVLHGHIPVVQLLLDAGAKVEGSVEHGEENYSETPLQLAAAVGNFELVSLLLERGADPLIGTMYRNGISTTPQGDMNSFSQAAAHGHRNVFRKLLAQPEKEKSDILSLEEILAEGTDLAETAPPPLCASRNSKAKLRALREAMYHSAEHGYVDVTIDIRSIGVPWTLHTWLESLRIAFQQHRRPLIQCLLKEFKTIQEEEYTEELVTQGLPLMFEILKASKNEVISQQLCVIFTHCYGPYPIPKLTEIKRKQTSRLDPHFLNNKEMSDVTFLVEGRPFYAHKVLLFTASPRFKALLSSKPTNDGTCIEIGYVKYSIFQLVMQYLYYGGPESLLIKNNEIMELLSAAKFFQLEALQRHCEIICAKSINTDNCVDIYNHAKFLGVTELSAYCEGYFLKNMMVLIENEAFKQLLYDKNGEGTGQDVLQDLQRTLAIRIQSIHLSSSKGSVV
# UniProt P41223: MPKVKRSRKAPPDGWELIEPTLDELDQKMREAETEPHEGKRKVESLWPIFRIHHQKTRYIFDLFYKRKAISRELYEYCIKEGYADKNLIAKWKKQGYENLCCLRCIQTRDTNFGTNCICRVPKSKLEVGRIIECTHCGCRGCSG
# UniProt Q9H8K7: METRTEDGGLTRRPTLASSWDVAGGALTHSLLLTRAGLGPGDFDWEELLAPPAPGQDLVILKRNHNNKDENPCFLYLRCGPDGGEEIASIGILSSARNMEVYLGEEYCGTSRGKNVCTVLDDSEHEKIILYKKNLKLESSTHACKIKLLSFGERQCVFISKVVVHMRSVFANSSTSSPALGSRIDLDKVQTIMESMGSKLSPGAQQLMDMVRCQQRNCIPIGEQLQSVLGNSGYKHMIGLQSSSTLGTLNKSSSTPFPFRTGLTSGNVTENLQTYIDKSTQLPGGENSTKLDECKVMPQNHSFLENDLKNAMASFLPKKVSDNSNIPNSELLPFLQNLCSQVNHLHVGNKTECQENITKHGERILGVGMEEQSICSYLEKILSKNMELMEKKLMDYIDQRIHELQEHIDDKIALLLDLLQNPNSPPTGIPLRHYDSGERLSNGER
# UniProt P31939: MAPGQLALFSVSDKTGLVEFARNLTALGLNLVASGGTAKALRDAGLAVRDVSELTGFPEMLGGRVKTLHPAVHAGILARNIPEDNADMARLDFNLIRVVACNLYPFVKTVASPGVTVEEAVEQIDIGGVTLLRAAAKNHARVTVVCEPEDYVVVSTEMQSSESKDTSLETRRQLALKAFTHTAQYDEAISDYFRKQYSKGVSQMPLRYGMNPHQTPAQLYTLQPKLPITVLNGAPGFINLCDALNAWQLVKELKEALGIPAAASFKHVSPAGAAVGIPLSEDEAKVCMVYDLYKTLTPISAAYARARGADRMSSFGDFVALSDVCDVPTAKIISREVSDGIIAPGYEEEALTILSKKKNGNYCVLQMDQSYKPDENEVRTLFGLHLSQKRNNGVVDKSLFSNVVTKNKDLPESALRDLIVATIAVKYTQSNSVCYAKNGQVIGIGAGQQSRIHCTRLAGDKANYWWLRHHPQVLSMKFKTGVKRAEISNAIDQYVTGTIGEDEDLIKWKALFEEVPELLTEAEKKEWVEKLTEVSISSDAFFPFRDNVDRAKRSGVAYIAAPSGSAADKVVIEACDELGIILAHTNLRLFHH
# UniProt Q9H3H3: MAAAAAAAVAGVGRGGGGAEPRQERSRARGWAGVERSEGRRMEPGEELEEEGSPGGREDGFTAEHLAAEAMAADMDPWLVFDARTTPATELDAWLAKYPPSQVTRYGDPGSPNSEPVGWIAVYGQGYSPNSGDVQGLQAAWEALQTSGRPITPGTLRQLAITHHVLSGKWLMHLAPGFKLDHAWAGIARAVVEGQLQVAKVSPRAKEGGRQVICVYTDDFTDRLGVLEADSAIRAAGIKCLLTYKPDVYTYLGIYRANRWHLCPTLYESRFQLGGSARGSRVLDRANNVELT
# UniProt P40121: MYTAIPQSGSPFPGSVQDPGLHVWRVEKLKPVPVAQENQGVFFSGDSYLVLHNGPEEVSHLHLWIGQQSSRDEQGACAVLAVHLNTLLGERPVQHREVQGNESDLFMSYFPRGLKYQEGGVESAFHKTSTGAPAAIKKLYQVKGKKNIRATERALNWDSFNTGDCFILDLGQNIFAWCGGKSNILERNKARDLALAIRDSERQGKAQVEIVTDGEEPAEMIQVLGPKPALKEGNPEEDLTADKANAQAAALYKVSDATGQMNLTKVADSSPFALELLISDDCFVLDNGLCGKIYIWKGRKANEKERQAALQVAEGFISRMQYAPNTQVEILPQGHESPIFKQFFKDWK
# UniProt Q86VP6: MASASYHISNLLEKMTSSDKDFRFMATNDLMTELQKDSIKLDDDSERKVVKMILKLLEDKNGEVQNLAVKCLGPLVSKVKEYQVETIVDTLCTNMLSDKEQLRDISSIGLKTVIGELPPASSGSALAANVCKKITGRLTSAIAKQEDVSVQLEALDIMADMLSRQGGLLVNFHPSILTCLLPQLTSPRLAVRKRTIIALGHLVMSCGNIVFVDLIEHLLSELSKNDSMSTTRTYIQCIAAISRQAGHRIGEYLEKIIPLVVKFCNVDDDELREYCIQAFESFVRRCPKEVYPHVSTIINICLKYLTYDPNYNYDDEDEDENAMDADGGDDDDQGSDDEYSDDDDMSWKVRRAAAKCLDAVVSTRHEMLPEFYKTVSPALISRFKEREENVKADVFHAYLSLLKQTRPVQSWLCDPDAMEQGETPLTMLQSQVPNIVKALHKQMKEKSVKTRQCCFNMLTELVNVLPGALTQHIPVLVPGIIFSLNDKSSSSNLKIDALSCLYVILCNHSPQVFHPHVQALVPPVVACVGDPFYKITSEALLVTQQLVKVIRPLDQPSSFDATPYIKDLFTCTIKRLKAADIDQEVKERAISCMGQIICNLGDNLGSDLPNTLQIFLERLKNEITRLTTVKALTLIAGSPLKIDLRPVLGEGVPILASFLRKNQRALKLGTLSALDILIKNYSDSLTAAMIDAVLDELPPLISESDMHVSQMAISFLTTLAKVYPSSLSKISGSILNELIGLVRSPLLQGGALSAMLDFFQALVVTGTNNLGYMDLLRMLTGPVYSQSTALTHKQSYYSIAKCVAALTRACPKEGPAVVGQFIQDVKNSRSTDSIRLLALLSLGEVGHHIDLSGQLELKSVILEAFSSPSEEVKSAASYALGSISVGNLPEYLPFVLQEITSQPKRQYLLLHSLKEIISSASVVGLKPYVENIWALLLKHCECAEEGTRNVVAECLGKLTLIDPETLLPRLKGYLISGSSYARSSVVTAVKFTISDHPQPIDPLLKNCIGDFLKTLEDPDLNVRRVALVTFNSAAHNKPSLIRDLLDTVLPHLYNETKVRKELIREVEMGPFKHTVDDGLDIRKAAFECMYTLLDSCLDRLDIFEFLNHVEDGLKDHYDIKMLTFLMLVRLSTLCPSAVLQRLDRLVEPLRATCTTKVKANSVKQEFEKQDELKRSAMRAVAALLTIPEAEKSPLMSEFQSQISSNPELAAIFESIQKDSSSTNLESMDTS
# UniProt Q9BPX7: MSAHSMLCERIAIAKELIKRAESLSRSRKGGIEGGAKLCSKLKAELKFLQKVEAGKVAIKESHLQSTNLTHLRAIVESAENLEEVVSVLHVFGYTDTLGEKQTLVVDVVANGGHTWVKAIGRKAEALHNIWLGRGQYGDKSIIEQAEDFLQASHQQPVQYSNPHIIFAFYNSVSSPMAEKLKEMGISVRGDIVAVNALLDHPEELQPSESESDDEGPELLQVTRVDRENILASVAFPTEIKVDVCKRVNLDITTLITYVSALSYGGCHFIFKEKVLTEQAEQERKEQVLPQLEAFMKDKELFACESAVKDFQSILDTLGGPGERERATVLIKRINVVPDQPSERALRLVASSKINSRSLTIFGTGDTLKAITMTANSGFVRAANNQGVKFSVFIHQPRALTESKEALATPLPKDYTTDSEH
# UniProt Q9BVC5: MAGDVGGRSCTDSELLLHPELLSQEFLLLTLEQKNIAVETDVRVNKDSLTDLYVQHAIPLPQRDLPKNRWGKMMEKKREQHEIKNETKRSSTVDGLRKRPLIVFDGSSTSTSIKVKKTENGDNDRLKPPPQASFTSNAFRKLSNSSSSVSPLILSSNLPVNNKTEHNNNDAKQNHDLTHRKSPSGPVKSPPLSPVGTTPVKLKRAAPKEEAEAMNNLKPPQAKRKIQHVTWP
# UniProt A6NDU8: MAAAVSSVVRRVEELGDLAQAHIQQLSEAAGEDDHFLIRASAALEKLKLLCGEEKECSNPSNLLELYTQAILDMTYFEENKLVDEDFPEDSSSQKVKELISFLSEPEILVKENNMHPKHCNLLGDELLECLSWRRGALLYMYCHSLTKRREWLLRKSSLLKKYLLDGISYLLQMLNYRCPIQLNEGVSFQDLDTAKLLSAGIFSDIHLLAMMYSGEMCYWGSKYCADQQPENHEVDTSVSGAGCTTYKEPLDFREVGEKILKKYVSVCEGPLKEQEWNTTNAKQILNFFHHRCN
# The list shows a part of the results.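 The calls were made as follows: active = dose-dependent thermal stabilisation significant by F-test of dose-response against flat model at 10% FDR; inactive = not significant.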
# Compound: Nc1nc2c(ncn2[C@@H]2O[C@H](COP(=O)(O)OP(=O)(O)OP(=O)(O)O)[C@@H](O)[C@H]2O)c(=O)[nH]1
# Test: dose-dependent thermal stabilisation call (2D-TPP, DLPTP, 10% FDR) (binary (1 = stabilised)); higher = stabilised by the compound
# Conditions: system: Jurkat gel-filtered lysate; concentration range 1-500 µM
row,Target,dose-dependent thermal stabilisation call
1,BNIP1 (UniProt Q12981),inactive: 0
2,CAMK2D (UniProt Q13557),inactive: 0
3,BOLA3 (UniProt Q53S33),inactive: 0
4,AVEN (UniProt Q9NQS1),inactive: 0
5,BOD1L1 (UniProt Q8NFC6),inactive: 0
6,BPNT1 (UniProt O95861),inactive: 0
7,BAG4 (UniProt O95429),inactive: 0
8,ATP5D (UniProt P30049),inactive: 0
9,BANP (UniProt Q8N9N5),inactive: 0
10,BTBD11 (UniProt A6QL63),inactive: 0
11,ARPC5 (UniProt O15511),inactive: 0
12,BUD31 (UniProt P41223),inactive: 0
13,C11orf84 (UniProt Q9BUA3),inactive: 0
14,C18orf25 (UniProt Q96B23),inactive: 0
15,ATP6V1G1 (UniProt O75348),inactive: 0
16,C8orf37 (UniProt Q96NL8),inactive: 0
17,C10orf88 (UniProt Q9H8K7),inactive: 0
18,ATRX (UniProt P46100),inactive: 0

row,Target,dose-dependent thermal stabilisation call
1,ASNA1 (UniProt O43681),active: 1
2,ATIC (UniProt P31939),inactive: 0
3,ASAH1 (UniProt Q13510),inactive: 0
4,ARIH1 (UniProt Q9Y4X5),inactive: 0
5,C11orf68 (UniProt Q9H3H3),inactive: 0
6,CAPG (UniProt P40121),inactive: 0
7,C12orf10 (UniProt Q9HB07),inactive: 0
8,CAND1 (UniProt Q86VP6),active: 1
9,BRCA2 (UniProt P51587),inactive: 0
10,C11orf96 (UniProt Q7Z7L8),inactive: 0
11,BNIP2 (UniProt Q12982),inactive: 0
12,C7orf25 (UniProt Q9BPX7),inactive: 0
13,C2orf49 (UniProt Q9BVC5),inactive: 0
14,BAG5 (UniProt Q9UL15),inactive: 0
15,CAPZA1 (UniProt P52907),inactive: 0
16,ATP6V1D (UniProt Q9Y5K8),inactive: 0
17,C5orf51 (UniProt A6NDU8),active: 1
18,ATPAF2 (UniProt Q8N5M1),inactive: 0

# A stretch taken from the entries so far, as a working copy:
row,Target,dose-dependent thermal stabilisation call
15,ATP6V1G1 (UniProt O75348),inactive: 0
16,C8orf37 (UniProt Q96NL8),inactive: 0
